Measured values from patent US4794197A, “All-cis-1,3,5-triamino-2,4,6,-cyclohexanetriol derivatives, their use, processes for their preparation and pharmaceutical preparations containing them” (priority 1985, dated 1988).
For at least one compound, name, drawing or mass did not settle the structure.

Experiment: rate of dissolution of a grain of β-FeO(OH) (50×6×6 nm), compared with deferoxamine
Details: grain 50×6×6 nm; relative to deferoxamine

CN(C)[C@H]1[C@@H](O)[C@@H](N(C)C)[C@@H](O)[C@@H](N(C)C)[C@H]1O [Example 11, all-cis-1,3,5-Tris-(dimethylamino)-2,4,6-cyclohexanetriol]
rate of dissolution of a grain of β-FeO(OH) versus deferoxamine: five times more rapidly
